Test results published in publication PMC10506284.

Target: Flag-tagged Vimentin Head-Rod (HR) domain truncated mutant (human)
Test: co-IP; exogenous tagged proteins in transfected cells (MGC803 and MKN45 where named); low salt lysis buffer, supernatant with antibody (HA, Flag, 6xHis, MYC) and beads at 4 C overnight

- binding: binds
B1: HA-tagged Ladinin-1 (LAD1), full-length open reading frame (protein, UniProt O00515 1-517)
chain: MAVSRKDWSALSSLARQRTLEDEEEQERERRRRHRNLSSTTDDEAPRLSQNGDRQASASERLPSVEEAEVPKPLPPASKDEDEDIQSILRTRQERRQRRQVVEAAQAPIQERLEAEEGRNSLSPVQATQKPLVSKKELEIPPRRRLSREQRGPWALEEESLVGREPEERKKGVPEKSPVLEKSSMPKKTAPEKSLVSDKTSISEKVLASEKTSLSEKIAVSEKRNSSEKKSVLEKTSVSEKSLAPGMALGSGRRLVSEKASIFEKALASEKSPTADAKPAPKRATASEQPLAQEPPASGGSPATTKEQRGRALPGKNLPSLAKQGASDPPTVASRLPPVTLQVKIPSKEEEADMSSPTQRTYSSSLKRSSPRTISFRMKPKKENSETTLTRSASMKLPDNTVKLGEKLERYHTAIRRSESVKSRGLPCTELFVAPVGVASKRHLFEKELAGQSRAEPASSRKENLRLSGVVTSRLNLWISRTQESGDQDPQEAQKASSATERTQWGQKSDSSLDAEV

No constants are given. Whether binding was seen depends on the method and setting. Binding seen in cells or lysates may run through a third protein. A result given as binding can be weak or reduced; the word gives no strength. Tags and fused reporters may be left off the sequences shown.
